Assay results reported in patent US9888688B2, “Tetrazolinone compounds and applications thereof” (Sumitomo Chemical Company, Limited, priority 2013, dated 2018).
Some results were stated once for a whole list of compounds, not compound by compound.

Tests used:
Assay type in all cases: in vivo
[1] = system: barley net blotch fungus (Pyrenophora teres); test: Barley net blotch control test, foliar spray on barley (Test Examples 4, 16, 17, 18); conditions: barley NISHINOHOSHI, inoculated after 2 days
[2] = system: wheat leaf blotch fungus (Septoria tritici); test: Wheat leaf blotch control test, spray before inoculation (Test Examples 6, 9, 10, Comparative Test Example); conditions: wheat APOGEE, inoculated after 4 days
[3] = system: soybean rust fungus (Phakopsora pachyrhizi); test: Soybean rust control test, foliar spray on soybean (Test Example 19); conditions: 200 ppm foliar spray, soybean KUROSENGOKU, inoculated after 2 days
[4] = system: barley scald fungus (Rhynchosporium secalis); test: Barley scald control test, foliar spray on barley (Test Examples 20, 21); conditions: 200 ppm foliar spray, barley NISHINOHOSHI, inoculated after 2 days
[5] = system: cucumber corynespora leaf spot fungus (Corynespora cassicola); test: Cucumber corynespora leaf spot control test (Test Examples 26, 27); conditions: 200 ppm foliar spray, cucumber SAGAMI HANJIRO, inoculated after one day, 7 days
[6] = system: cucumber anthracnose fungus (Colletotrichum lagenarium); test: Cucumber anthracnose control test (Test Examples 28, 29); conditions: cucumber SAGAMI HANJIRO, inoculated after one day
[7] = system: kidney bean stem rot fungus (Sclerotinia sclerotiorum); test: Kidney bean stem rot control test, foliar spray on kidney bean (Test Examples 5, 22, 23); conditions: kidney bean NAGAUZURA NATANE, four days after inoculation
[8] = system: wheat leaf blotch fungus (Septoria tritici); test: Wheat leaf blotch control test, spray after inoculation (Test Example 8); conditions: 200 ppm foliar spray 3 days after inoculation, wheat APOGEE

Measured: area of lesion spots relative to that on an untreated plant

Cc1cc(-c2ncccc2C)c(C)cc1OCc1c(C)cccc1-n1nnn(C)c1=O [Present Compound 167]
≤ 30%: [1]; 200 ppm foliar spray | [1]; 500 ppm foliar spray | [2]; 200 ppm foliar spray | [2]; 500 ppm foliar spray | [3] | [4] | [5] | [6]; 200 ppm foliar spray

CSc1cccc(-n2nnn(C)c2=O)c1COc1ccc(-c2nccc(C)n2)cc1C [Present Compound 97]
≤ 30%: [1]; 200 ppm foliar spray | [1]; 500 ppm foliar spray | [7]; 500 ppm foliar spray | [2]; 200 ppm foliar spray | [2]; 500 ppm foliar spray | [3] | [4] | [5] | [6]; 200 ppm foliar spray

COc1cccc(-n2nnn(C)c2=O)c1COc1ccc(-c2cccc(C)n2)cc1C [Present Compound 49]
≤ 30%: [1]; 200 ppm foliar spray | [1]; 500 ppm foliar spray | [7]; 200 ppm foliar spray | [7]; 500 ppm foliar spray | [2]; 200 ppm foliar spray | [2]; 500 ppm foliar spray | [3] | [4]

Cc1ccc(-c2ccc(OCc3c(Cl)cccc3-n3nnn(C)c3=O)c(C)c2)cn1 [Present Compound 74]
≤ 30%: [1]; 200 ppm foliar spray | [1]; 500 ppm foliar spray | [7]; 200 ppm foliar spray | [7]; 500 ppm foliar spray | [2]; 200 ppm foliar spray | [2]; 500 ppm foliar spray | [8] | [4] | [5] | [6]; 50 ppm foliar spray

CCc1cccc(-c2ccc(OCc3c(OC)cccc3-n3nnn(C)c3=O)c(C)c2)n1 [Present Compound 45]
≤ 30%: [1]; 200 ppm foliar spray | [1]; 500 ppm foliar spray | [7]; 200 ppm foliar spray | [7]; 500 ppm foliar spray | [2]; 200 ppm foliar spray | [2]; 500 ppm foliar spray | [3] | [4] | [6]; 200 ppm foliar spray

CCc1ccnc(-c2ccc(OCc3ccccc3-n3nnn(C)c3=O)c(C)c2)n1 [Present Compound 141]
≤ 30%: [1]; 200 ppm foliar spray | [1]; 500 ppm foliar spray | [7]; 200 ppm foliar spray | [7]; 500 ppm foliar spray | [2]; 200 ppm foliar spray | [2]; 500 ppm foliar spray | [8] | [4] | [5] | [6]; 50 ppm foliar spray

COc1cccc(-n2nnn(C)c2=O)c1COc1ccc(-c2ncccc2Cl)cc1C [Present Compound 3]
≤ 30%: [1]; 200 ppm foliar spray | [1]; 500 ppm foliar spray | [7]; 200 ppm foliar spray | [7]; 500 ppm foliar spray | [2]; 200 ppm foliar spray | [3] | [4] | [5]

CCc1cccc(-c2ccc(OCc3ccccc3-n3nnn(C)c3=O)c(C)c2)n1 [Present Compound 44]
≤ 30%: [1]; 200 ppm foliar spray | [1]; 500 ppm foliar spray | [7]; 200 ppm foliar spray | [7]; 500 ppm foliar spray | [2]; 200 ppm foliar spray | [2]; 500 ppm foliar spray | [3] | [4] | [6]; 200 ppm foliar spray

Cc1cc(Cl)nc(-c2ccc(OCc3c(C)cccc3-n3nnn(C)c3=O)c(C)c2)c1 [Present Compound 184]
≤ 30%: [1]; 200 ppm foliar spray | [1]; 500 ppm foliar spray | [7]; 200 ppm foliar spray | [2]; 200 ppm foliar spray | [2]; 500 ppm foliar spray | [8] | [4] | [5] | [6]; 200 ppm foliar spray

CCCc1cccc(-c2ccc(OCc3c(C)cccc3-n3nnn(C)c3=O)c(C)c2)n1 [Present Compound 126, 1-{3-methyl-2-[2-methyl-4-(6-propylpyridin-3-yl)-phenoxymethyl]-phenyl}-4-methyl-1,4-dihydrotetrazol-5-one]
≤ 30%: [1]; 200 ppm foliar spray | [1]; 500 ppm foliar spray | [7]; 50 ppm foliar spray | [7]; 500 ppm foliar spray | [2]; 200 ppm foliar spray | [2]; 500 ppm foliar spray | [3] | [4] | [6]; 50 ppm foliar spray

CCc1cccc(-c2ccc(OCc3c(CC)cccc3-n3nnn(C)c3=O)c(C(F)(F)F)c2)n1 [Present Compound 132]
≤ 30%: [1]; 200 ppm foliar spray | [1]; 500 ppm foliar spray | [7]; 200 ppm foliar spray | [7]; 500 ppm foliar spray | [2]; 200 ppm foliar spray | [2]; 500 ppm foliar spray | [8] | [4] | [5] | [6]; 200 ppm foliar spray

Cc1cc(-c2cccc(F)n2)c(C)cc1OCc1c(C)cccc1-n1nnn(C)c1=O [Present Compound 171]
≤ 30%: [1]; 200 ppm foliar spray | [1]; 500 ppm foliar spray | [7]; 200 ppm foliar spray | [7]; 500 ppm foliar spray | [2]; 200 ppm foliar spray | [2]; 500 ppm foliar spray | [8] | [4] | [5] | [6]; 200 ppm foliar spray

Cc1ccnc(-c2ccc(OCc3c(C)cccc3-n3nnn(C)c3=O)c(C(F)(F)F)c2)n1 [Present Compound 136]
≤ 30%: [1]; 200 ppm foliar spray | [1]; 500 ppm foliar spray | [7]; 200 ppm foliar spray | [7]; 500 ppm foliar spray | [2]; 200 ppm foliar spray | [2]; 500 ppm foliar spray | [8] | [4] | [5] | [6]; 200 ppm foliar spray

Cc1cc(-c2ccc(F)cn2)ccc1OCc1c(C)cccc1-n1nnn(C)c1=O [Present Compound 185]
≤ 30%: [1]; 200 ppm foliar spray | [7]; 200 ppm foliar spray | [2]; 200 ppm foliar spray | [8] | [4] | [5] | [6]; 200 ppm foliar spray

Cc1cc(-c2cc(Cl)ccn2)c(C)cc1OCc1c(C)cccc1-n1nnn(C)c1=O [Present Compound 159]
≤ 30%: [1]; 200 ppm foliar spray | [1]; 500 ppm foliar spray | [7]; 200 ppm foliar spray | [7]; 500 ppm foliar spray | [2]; 200 ppm foliar spray | [2]; 500 ppm foliar spray | [8] | [4] | [5] | [6]; 200 ppm foliar spray
